# Percent effect of library compounds

The chains behind the UniProt entries cited, without tags or fusion partners. Residues count along the entry.
UniProt P9WFT3, whole entry: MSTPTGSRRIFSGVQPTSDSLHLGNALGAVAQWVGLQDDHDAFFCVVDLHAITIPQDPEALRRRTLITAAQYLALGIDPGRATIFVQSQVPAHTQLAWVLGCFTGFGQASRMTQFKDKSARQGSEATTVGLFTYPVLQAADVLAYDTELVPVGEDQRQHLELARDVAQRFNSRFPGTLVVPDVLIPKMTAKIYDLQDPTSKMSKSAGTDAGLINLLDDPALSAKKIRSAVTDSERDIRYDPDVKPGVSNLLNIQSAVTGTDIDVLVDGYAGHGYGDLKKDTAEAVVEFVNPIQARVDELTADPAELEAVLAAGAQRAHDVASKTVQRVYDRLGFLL
UniProt Q8IDJ8, 1-583: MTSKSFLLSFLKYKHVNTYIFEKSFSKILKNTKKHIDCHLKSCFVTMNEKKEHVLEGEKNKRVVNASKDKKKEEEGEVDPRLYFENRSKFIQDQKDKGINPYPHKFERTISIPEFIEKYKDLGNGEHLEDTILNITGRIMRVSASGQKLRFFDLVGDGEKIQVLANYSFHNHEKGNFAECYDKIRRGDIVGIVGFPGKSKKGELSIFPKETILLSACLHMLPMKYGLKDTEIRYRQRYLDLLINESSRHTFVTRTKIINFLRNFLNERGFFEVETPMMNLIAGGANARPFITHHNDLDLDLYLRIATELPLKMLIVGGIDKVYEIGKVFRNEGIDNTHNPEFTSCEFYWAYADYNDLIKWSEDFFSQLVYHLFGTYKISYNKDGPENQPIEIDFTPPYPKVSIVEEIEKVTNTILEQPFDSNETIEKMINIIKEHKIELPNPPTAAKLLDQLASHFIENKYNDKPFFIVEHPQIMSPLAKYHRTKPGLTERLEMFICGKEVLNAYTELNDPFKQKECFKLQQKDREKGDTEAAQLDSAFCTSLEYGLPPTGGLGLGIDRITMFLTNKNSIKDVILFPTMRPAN
UniProt P9WPC5, whole entry: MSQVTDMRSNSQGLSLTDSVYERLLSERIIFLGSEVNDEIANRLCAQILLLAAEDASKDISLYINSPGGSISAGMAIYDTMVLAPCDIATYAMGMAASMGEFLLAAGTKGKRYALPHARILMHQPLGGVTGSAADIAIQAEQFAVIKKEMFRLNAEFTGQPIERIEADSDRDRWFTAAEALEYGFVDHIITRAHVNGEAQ
UniProt P9WPC3, whole entry partner: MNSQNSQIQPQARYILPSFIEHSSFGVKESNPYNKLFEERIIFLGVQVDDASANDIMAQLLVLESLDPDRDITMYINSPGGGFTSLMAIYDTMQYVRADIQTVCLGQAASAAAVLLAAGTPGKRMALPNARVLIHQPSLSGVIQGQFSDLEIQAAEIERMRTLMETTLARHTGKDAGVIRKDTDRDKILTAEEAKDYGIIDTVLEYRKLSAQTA

A: 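Tryptophan-tRNA ligase, Mycobacterium tuberculosis (UniProt P9WFT3). Enzyme assay of tryptophanyl-tRNA synthetase; the read-out is not stated. Concentration: 10 µM. Direction is not recorded; retested compounds ran higher, which suggests that high means inhibition. About 65,000 compounds were tested under these conditions; 0.098% (about 64) showed 50% or more at least once.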
B: 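Lysine-tRNA ligase, Plasmodium falciparum 3D7 (UniProt Q8IDJ8). Enzyme assay of the cytosolic lysyl-tRNA synthetase in 384-well plates, read by luminescence. Concentration: 30 µM. Higher reads as stronger inhibition, judged from the few compounds that gave an IC50. About 69,000 compounds were tested under these conditions; 0.071% (about 49) showed 50% or more at least once.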
C: 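Protease assay of ClpP1P2, read by the AMC dye that it sets free. Target: ClpP1P2, Mycobacterium tuberculosis (UniProt P9WPC5 and UniProt P9WPC3). Tested at 50 µM. Direction is inferred from only a few compounds that gave an IC50; most scored high, so higher reads as stronger inhibition. Most other retested compounds had strongly negative values. Size under these conditions: about 69,000 compounds, about 10 of them at 50% or above in at least one test.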

Results are given as percent effect.
The controls that fix the scale are not given in the record; negative values are as filed.
This is an unselected part of the compounds tested.
A dash means the value is not listed here; it may have been measured.

compound	A	B	C
O=C(NCC1(O)CCOCC1)c1ccc(F)cc1	2.201	4.78	-6.207
CC1(C)CNC(=O)c2nc(C3CCN(C(=O)C4CC4)CC3)[nH]c2C1	-0.551	6.919	-8.607
Cc1noc(C)c1C(=O)NCC(c1ccc(F)cc1)N(C)C (centres undefined)	-4.762	4.136	7.357
O=C1CSc2ccccc2N1Cc1noc(C2CCCO2)n1 (centres undefined)	2.193	2.468	-2.121
NC(=O)C1CCN(C(=O)NCCOc2ccc3c(c2)CCC3)CC1	-0.4011	1.211	-18.13
CC(=O)NCC1CCCN(Cc2nc(Cc3ccccc3F)no2)C1 (centres undefined)	1.356	8.305	-18.49
CC(C)N(C)C(=O)C1=NOC2(CCN(C(=O)c3cccn3C)C2)C1 (centres undefined)	0.6478	-1.251	-4.521
CCN(C(=O)CN1CCCC1c1ccc(OC)cc1)c1ccccc1 (centres undefined)	-4.568	4.254	1.265
CC(C)Cc1nc(CCn2ccc(=O)[nH]c2=O)n(-c2ccccn2)n1	3.095	-0.6875	10.02
CC1CCN(C(=O)c2cnn3c(-c4ccco4)ccnc23)CC1	-1.643	1.791	-85.34
Cn1c(Cn2cccn2)nnc1C1CCN(Cc2cccnc2)CC1	1.146	6.61	-11.87
Cn1c(=O)[nH]c2cc(C(=O)OCCCn3ccccc3=O)ccc21	-3.311	-1.948	1.162
CN1CCN(C(=O)CCc2cccnc2)c2ccc(F)cc21	-2.468	-1.281	-8.706
Cc1ccc(OCc2occc2C(=O)N2CCCCC(N)C2)cc1 (centres undefined)	1.088	7.244	-6.388
CS(=O)(=O)N1CCCC(Cc2cnc(Br)cn2)CC1 (centres undefined)	11.58	-1.144	6.697
Cc1nc(CN(C)C2CCN(Cc3sc(C)nc3C)C2)no1 (centres undefined)	6.335	6.176	6.019
CC(C)(C)c1nccc(N2CCCCC2CCNS(C)(=O)=O)n1 (centres undefined)	1.248	3.396	-11.37
CC(NC(=O)NCCCc1n[nH]c(N)c1C#N)c1ccc(Cl)cc1 (centres undefined)	-2.865	-0.6183	-14.28
O=C(c1ccc(Cl)o1)N1CCCC1c1nnc2n1CCCCC2 (centres undefined)	0	1.055	3.551
CN1CCN(C[C@H]2CC[C@@H](Cc3ccc(CN4CCCC4)cc3)O2)CC1	-1.19	1.495	-0.1458
O=C(CNc1cc(-c2ccccc2)nc2ccnn12)NC1CC1	2.437	6.037	-10.68
Cc1ccsc1CNC1CCCc2c1cnn2C (centres undefined)	-4.312	-6.584	-0.5719
Cc1noc(C)c1-c1nc(C2CCCN(C(=O)CCN)C2)ccc1CO (centres undefined)	-4.023	2.141	-10.4
CC(=O)N1N=C(c2ccco2)OC1C(=O)NCCc1ccc(F)cc1 (centres undefined)	-	3.799	-3.288
O=S1(=O)[C@@H](c2ccccc2)[C@H](CO)CN1C1CC1	-	1.788	1.527
OCC(O)CSCc1ccc(F)cc1Cl (centres undefined)	6	-2.523	-8
CCCn1cnnc1CNC(=O)CC1C(=O)NCCN1CC(C)(C)C (centres undefined)	-5.688	3.826	5.173
O=C(c1ccc(=O)[nH]n1)N(CCO)Cc1cc(Br)ccc1F	-3.541	7.373	12.85
COc1cccc(CN(C)Cc2[nH]c3ccccc3c2C)c1O	4.575	0.4714	8.684
CCC(C(=O)NCC1CCN(c2cnn(C)c(=O)c2)CC1)n1cccn1 (centres undefined)	1.481	3.963	-2.245
COCCN1CCN(Cc2ccco2)Cc2ccc(C)nc21	5.004	4.992	-8.117
C=C(C)CNc1nc(CS(=O)(=O)c2ccccc2)cs1	0.8894	7.123	-14.85
Cc1cc(C)n(CCCN(CCN2CCOCC2)Cc2ccco2)n1	-1.723	2.096	-12.14
Cc1ccoc1C(=O)NCCOc1ncc(Cl)cc1Cl	1.644	6.138	-20.15
O=C(C1=CCCC1)N1CC[C@]2(C[C@H](OCc3cccnc3)CO2)C1	2.695	2.664	-3.172
N#Cc1cccc(Cl)c1NCCCc1nc(=O)[nH][nH]1	-1.858	4.274	-4.579
CCS(=O)(=O)N1CCC(c2nnc(CN3CCOCC3)n2C)CC1	3.552	3.515	-10.47
CS(=O)(=O)c1ccc(NCc2ccccc2)cn1	-0.5045	-0.4924	-6.704
COc1ncc(-c2ccc(O)cc2)c(OC)n1	-3.446	-0.6287	-13.4
Cc1nn2c(N3CCS(=O)(=O)CC3)cc(-c3ccccc3)nc2c1C	-0.404	5.352	-9.242
Cc1nccn1-c1ccc(NS(=O)(=O)c2cnn(C(C)C)c2)cn1	-3.765	3.872	4.559
Cc1ccc(CNC(=O)NC2CCCN(c3ncccn3)C2)cn1 (centres undefined)	-4.287	3.919	-0.6381
O=C(O)c1ccc(CCNC(=O)C2(c3ccccc3)CC2)cc1	20.6	-2.888	-3.377
CC(=O)c1cccc(OC(C)C(=O)Nc2cnn(CCN(C)C)c2)c1 (centres undefined)	1.888	-0.5256	-3.867
CC(C)c1nccn1C1CCCN(C(=O)c2ccnc(N(C)C)c2)C1 (centres undefined)	-0.7037	2.695	-1.88
CC(O)CN1CCN(Cc2cccc(C#N)c2)CC1 (centres undefined)	-2.861	-1.456	-3.246
CCC(=O)Nc1ccccc1Sc1nc(Br)nn1C	-1.866	-1.389	-6.6
O=C(Cc1cccc(O)c1)N1CCCC(O)(CN2CCCC2)CC1 (centres undefined)	0.5465	2.548	16.04
CN(C)c1cc(C(=O)N2CCCCCC2)ccn1	-3.877	2.604	-13.41
O=C(C1CCOCC1)N1CCC2(CC1)CN(c1ccsc1)C(=O)CO2	-0.6255	1.299	1.913
CS(=O)(=O)NCCC1CN(Cc2ccccc2F)CCO1 (centres undefined)	0.859	5.634	5.494
O=C(CN1CCC[C@H]1C(=O)O)NCCOc1cccc(Cl)c1	-5.455	2.109	4.139
CNC(=O)[C@@]12CCC3(CCN(C(=O)C(C)C)CC3)[C@@H]1CN(S(C)(=O)=O)C2	2.632	3.82	-5.125
O=C(CN1CCOC(Cn2cncn2)C1)NCc1cccs1 (centres undefined)	15.29	-1.968	3.854
CCN1CC2(CCN(CCOc3ccc(F)cc3)CC2)CC1=O	1.06	-3.704	9.957
O=C1CCC(C(=O)Nc2cnn(-c3ccccc3Cl)c2)N1 (centres undefined)	-0.1485	4.76	-3.976

Some entries from above, unchanged:

{"compound": "Cc1noc(C)c1-c1nc(C2CCCN(C(=O)CCN)C2)ccc1CO", "stereo": "centres undefined", "A": -4.023, "B": 2.141, "C": -10.4}
{"compound": "O=C(c1ccc(Cl)o1)N1CCCC1c1nnc2n1CCCCC2", "stereo": "centres undefined", "A": 0, "B": 1.055, "C": 3.551}
{"compound": "COc1cccc(CN(C)Cc2[nH]c3ccccc3c2C)c1O", "A": 4.575, "B": 0.4714, "C": 8.684}
{"compound": "COc1ncc(-c2ccc(O)cc2)c(OC)n1", "A": -3.446, "B": -0.6287, "C": -13.4}
{"compound": "CC(C)c1nccn1C1CCCN(C(=O)c2ccnc(N(C)C)c2)C1", "stereo": "centres undefined", "A": -0.7037, "B": 2.695, "C": -1.88}
{"compound": "O=C(CN1CCC[C@H]1C(=O)O)NCCOc1cccc(Cl)c1", "A": -5.455, "B": 2.109, "C": 4.139}

Measurements from “University of Dundee, Small-Polar-MMV Screening Library” (2021), ChEMBL document CHEMBL3988442.